These results are taken from PubChem BioAssay AID248 (DTP/NCI, 2004).

The list is a part of this screen's results and no random one: it is rich in T/C values a quarter to a half above the control, in often repeated tests (any T/C) and in doses without a T/C. Other doses and runs of a compound stand elsewhere. T/C gives the treated animals as a percentage of the vehicle group. Some entries give survivors of the animals treated and no T/C: the source files T/C as zero there, which appears to mark a toxic dose or a test without result, not a measured value. Some survivor counts are full or nearly so, which does not show that the dose was tolerated: survival well below the control is almost never listed, so the zero probably covers shortened survival too. Survivors were counted at the toxicity check, usually on the fifth day, unless a day is given; later deaths do not show. Schedules are NCI's codes, read here as Q, the interval in days (D) or hours (H), X, the number of doses. Some entries hold several experiments; the results are listed from low to high. For survival time, this PubChem deposit counts one and a half times the control or more as active, and values a quarter to a half above the control carry no call in these data; other NCI protocols may use other cut-offs. Some schedule codes hold Z or #, which are not explained here.

For this assay, the system named is L1210 leukemia ip in BDF1 mice, survival T/C. Kind of assay: NCI In Vivo Anticancer Drug Screen. Data for tumor model L1210 Leukemia (intraperitoneal) in B6D2F1 (BDF1) mice. Conditions: T/C endpoint: mean survival time, higher T/C = longer survival.
Setting [1] is: dose: 400.0 mg/kg/injection, schedule: Q01DX001 (ip), vehicle: saline.
Where [2] appears, read: dose: 400.0 mg/kg/injection, schedule: Q01DX009 (ip), vehicle: saline with Tween-80.
Setting [3] is: dose: 200.0 mg/kg/injection, schedule: Q01DX001 (ip), vehicle: carboxymethylcellulose (CMC).
The mark [4] stands for this setting: dose: 400.0 mg/kg/injection, schedule: Q01DX001 (ip), vehicle: carboxymethylcellulose (CMC).
The mark [5] stands for this setting: dose: 400.0 mg/kg/injection, schedule: Q01DX009 (ip), vehicle: Klucel (hydroxypropylcellulose) (HPC).
Where [6] appears, read: dose: 400.0 mg/kg/injection, schedule: Q04DX003 (ip), vehicle: saline.
The mark [7] stands for this setting: dose: 200.0 mg/kg/injection, schedule: Q04DX003 (ip), vehicle: Klucel (hydroxypropylcellulose) (HPC).
Where [8] appears, read: dose: 400.0 mg/kg/injection, schedule: Q04DX003 (ip), vehicle: Klucel (hydroxypropylcellulose) (HPC).
Setting [9] is: dose: 100.0 mg/kg/injection, schedule: Q04DX003 (ip), vehicle: saline.

With `C[N+]1(CCCNC2=CC(=O)C=CC2=O)CCCC1`, the survivor count (dose: 1.0 mg/kg/injection, schedule: Q01DX001 (ip), vehicle: saline) is 0 of 6; the survivor count (dose: 2.0 mg/kg/injection, schedule: Q01DX001 (ip), vehicle: saline) is given as 0 of 6; the survivor count (dose: 4.0 mg/kg/injection, schedule: Q01DX001 (ip), vehicle: saline) was 0 of 6; the survivor count (dose: 5.0 mg/kg/injection, schedule: Q01DX001 (ip), vehicle: saline) was 0 of 6; the survivor count (dose: 8.0 mg/kg/injection, schedule: Q01DX001 (ip), vehicle: saline) is 0 of 6; the survivor count (dose: 10.0 mg/kg/injection, schedule: Q01DX001 (ip), vehicle: saline) is listed as 0 of 6. Also, the survivor count was 0 of 6 (dose: 20.0 mg/kg/injection, schedule: Q01DX001 (ip), vehicle: saline); 0 of 6 (dose: 40.0 mg/kg/injection, schedule: Q01DX001 (ip), vehicle: saline); 0 of 6 (dose: 80.0 mg/kg/injection, schedule: Q01DX001 (ip), vehicle: saline); 0 of 6 (dose: 100.0 mg/kg/injection, schedule: Q01DX001 (ip), vehicle: saline); 0 of 6 (dose: 200.0 mg/kg/injection, schedule: Q01DX001 (ip), vehicle: saline); 0 of 6 under setting [1].

For `O=C(O)c1cccc2ccccc12`, the survivor count under setting [2] was 0 of 6.

With `O=NN(CCCl)C(=O)Nc1ccccc1Cl`, the T/C (dose: 50.0 mg/kg/injection, schedule: Q01DX001 (ip), vehicle: carboxymethylcellulose (CMC)) was 142 % of control. Moreover, the survivor count runs as follows: under setting [3], 4 of 6; (dose: 300.0 mg/kg/injection, schedule: Q01DX001 (ip), vehicle: carboxymethylcellulose (CMC)) 2 of 6; under setting [4], 0 of 6; (dose: 500.0 mg/kg/injection, schedule: Q01DX001 (ip), vehicle: carboxymethylcellulose (CMC)) 0 of 6; (dose: 600.0 mg/kg/injection, schedule: Q01DX001 (ip), vehicle: carboxymethylcellulose (CMC)) 0 of 6; (dose: 800.0 mg/kg/injection, schedule: Q01DX001 (ip), vehicle: carboxymethylcellulose (CMC)) 0 of 6. Besides, the survivor count (dose: 1000.0 mg/kg/injection, schedule: Q01DX001 (ip), vehicle: carboxymethylcellulose (CMC)) is listed as 0 of 6.

Regarding `CC(C)(C)c1cc(/C=N/n2c(-c3ccccc3)nc3ccccc3c2=O)cc(C(C)(C)C)c1O`, the survivor count (dose: 200.0 mg/kg/injection, schedule: Q04DX002 (ip), vehicle: Klucel (hydroxypropylcellulose) (HPC)) is given as 3 of 3; the survivor count under setting [5] was 3 of 3 and 6 of 6.

As for `CC1NC1(c1ccccc1)[n+]1ccccc1` (stereo not given), the survivor count is recorded as 0 of 6 (dose: 200.0 mg/kg/injection, schedule: Q01DX009 (ip), vehicle: saline) and 0 of 6 under setting [6].

As to `CCCCCCCCCCCCN(CCC(=O)O)S(=O)(=O)O`, the survivor count by setting is: (dose: 150.0 mg/kg/injection, schedule: Q01DX009 (ip), vehicle: Klucel (hydroxypropylcellulose) (HPC)) 0 of 6; under setting [7], 2 of 6; (dose: 225.0 mg/kg/injection, schedule: Q01DX009 (ip), vehicle: Klucel (hydroxypropylcellulose) (HPC)) 0 of 6; (dose: 335.0 mg/kg/injection, schedule: Q01DX009 (ip), vehicle: Klucel (hydroxypropylcellulose) (HPC)) 0 of 6; under setting [8], 2 of 6.

As to `COc1ccc(CN(N=O)c2ccc(C(=O)O)cc2)cc1`, under setting [2], the survivor count is listed as 2 of 6.

For `CNCCCCOC`, the survivor count (dose: 400.0 mg/kg/injection, schedule: Q04DX002 (ip), vehicle: saline) is 1 of 3.

In the case of `O=C(Nc1cccc(Cl)c1)Oc1ccc(S(=O)(=O)F)cc1Cl`, the survivor count (dose: 400.0 mg/kg/injection, schedule: Q04DX002 (ip), vehicle: saline with Tween-80) was 0 of 3.

`Clc1cc2c(cc1CO/N=C\c1ccc3c(c1)OCO3)OCO2`: the survivor count (dose: 400.0 mg/kg/injection, schedule: Q04DX003 (ip), vehicle: saline sonified) is 6 of 6.

Turning to `CCOC(=O)C(CCSC(C)=O)SC(C)=O` (stereo not given), the survivor count (dose: 200.0 mg/kg/injection, schedule: Q01DX009 (ip), vehicle: saline with Tween-80) is reported as 6 of 6 and the survivor count (dose: 400.0 mg/kg/injection, schedule: Q04DX003 (ip), vehicle: saline with Tween-80) was 0 of 6.

Take `O=C(Nc1cc(C(F)(F)F)ccc1Cl)Oc1ccc(Cl)cc1Cc1ccccc1`: the survivor count (dose: 50.0 mg/kg/injection, schedule: Q01DX009 (ip), vehicle: Klucel (hydroxypropylcellulose) (HPC)) was 6 of 6; the survivor count (dose: 200.0 mg/kg/injection, schedule: Q01DX009 (ip), vehicle: Klucel (hydroxypropylcellulose) (HPC)) is listed as 2 of 6; the survivor count under setting [5] is 2 of 6.

In the case of `CC(C)(C)C1COP(=O)(C(C)(C)C)OC1` (stereo not given), the survivor count runs as follows: (dose: 50.0 mg/kg/injection, schedule: Q04DX003 (ip), vehicle: Klucel (hydroxypropylcellulose) (HPC)) 4 of 6; (dose: 100.0 mg/kg/injection, schedule: Q04DX003 (ip), vehicle: Klucel (hydroxypropylcellulose) (HPC)) 0 of 6; under setting [7], 0 of 6; under setting [8], 0 of 6.

Turning to `c1ccc(C2(c3ccccc3)CN3CCOC3=N2)cc1`, the survivor count runs as follows: (dose: 100.0 mg/kg/injection, schedule: Q04DX003 (ip), vehicle: acetone) 1 of 6; (dose: 200.0 mg/kg/injection, schedule: Q04DX003 (ip), vehicle: acetone) 0 of 6; (dose: 400.0 mg/kg/injection, schedule: Q04DX003 (ip), vehicle: acetone) 0 of 6.

For `C(=N\Nc1ccccc1)/c1cccc[n+]1Cc1ccccc1`, the survivor count (dose: 300.0 mg/kg/injection, schedule: Q01DX001 (ip), vehicle: other) is listed as 3 of 6.

Turning to `Nc1ccccc1SC1CC(=O)N(c2ccc(I)cc2)C1=O` (stereo not given), the survivor count under setting [9] is reported as 6 of 6.

In the case of `Clc1nc(Cl)nc(Cl)n1`, the survivor count (dose: 400.0 mg/kg/injection, schedule: Q04DX002 (ip), vehicle: other) is recorded as 1 of 3.

On to `CCNC(=S)S.[Zn+2]`, for which the survivor count runs as follows: (dose: 100.0 mg/kg/injection, schedule: Q01DX001 (ip), vehicle: carboxymethylcellulose (CMC)) 0 of 6; under setting [3], 1 of 6; under setting [4], 0 of 6.

In the case of `O=C(O)CCC1CCCCC1=O` (stereo not given), the survivor count under setting [8] is 3 of 6.

In the case of `Cc1[nH]c(=S)[nH]c(=O)c1CCSC(=N)N`, the survivor count under setting [1] is listed as 0 of 6.

On to `CCCCCCCCNC12CC3CC(CC(C3)C1)C2`, for which the survivor count (dose: 50.0 mg/kg/injection, schedule: Q04DX003 (ip), vehicle: saline) is reported as 1 of 6; the survivor count under setting [9] was 0 of 6; the survivor count (dose: 200.0 mg/kg/injection, schedule: Q04DX003 (ip), vehicle: saline) is reported as 0 of 6; the survivor count under setting [6] is reported as 0 of 6.

For the molecule `CC1=CCCC2(CCC3(C)CC32)C1(C)C` (stereo not given), the survivor count (dose: 400.0 mg/kg/injection, schedule: Q01DX009 (ip), vehicle: acetone) is 1 of 6.

As for `O=C(Nc1ccc(C2=NCCN2)cc1)c1cc(C(=O)Nc2ccc(C3=NCCN3)cc2)cc([N+](=O)[O-])c1`, the T/C (dose: 375.0 mg/kg/injection, schedule: Q01DX Z (ip), vehicle: methylcellulose (MC)) is 130 % of control.
